Library screen at single concentrations

Protein sequences, listed by entry. Tags and fused reporters are not part of them. Residues count along the entry.
UniProt Q8IDJ8, 1-583: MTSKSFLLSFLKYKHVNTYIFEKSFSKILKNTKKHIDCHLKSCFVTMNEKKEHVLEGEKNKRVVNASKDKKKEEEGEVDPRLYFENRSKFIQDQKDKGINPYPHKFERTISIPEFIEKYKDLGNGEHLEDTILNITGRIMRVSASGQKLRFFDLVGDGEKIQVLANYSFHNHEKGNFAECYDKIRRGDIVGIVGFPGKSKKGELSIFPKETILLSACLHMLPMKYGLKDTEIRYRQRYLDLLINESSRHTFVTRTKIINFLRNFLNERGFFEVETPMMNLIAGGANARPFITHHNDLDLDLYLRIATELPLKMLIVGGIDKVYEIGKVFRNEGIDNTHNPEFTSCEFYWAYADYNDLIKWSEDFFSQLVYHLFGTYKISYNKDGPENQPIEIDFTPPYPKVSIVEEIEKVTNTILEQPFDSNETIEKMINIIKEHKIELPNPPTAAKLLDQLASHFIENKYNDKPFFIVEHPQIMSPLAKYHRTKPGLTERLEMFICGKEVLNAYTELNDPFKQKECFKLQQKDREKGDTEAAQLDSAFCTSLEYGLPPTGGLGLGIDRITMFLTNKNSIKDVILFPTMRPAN
UniProt A4I591, 1-473: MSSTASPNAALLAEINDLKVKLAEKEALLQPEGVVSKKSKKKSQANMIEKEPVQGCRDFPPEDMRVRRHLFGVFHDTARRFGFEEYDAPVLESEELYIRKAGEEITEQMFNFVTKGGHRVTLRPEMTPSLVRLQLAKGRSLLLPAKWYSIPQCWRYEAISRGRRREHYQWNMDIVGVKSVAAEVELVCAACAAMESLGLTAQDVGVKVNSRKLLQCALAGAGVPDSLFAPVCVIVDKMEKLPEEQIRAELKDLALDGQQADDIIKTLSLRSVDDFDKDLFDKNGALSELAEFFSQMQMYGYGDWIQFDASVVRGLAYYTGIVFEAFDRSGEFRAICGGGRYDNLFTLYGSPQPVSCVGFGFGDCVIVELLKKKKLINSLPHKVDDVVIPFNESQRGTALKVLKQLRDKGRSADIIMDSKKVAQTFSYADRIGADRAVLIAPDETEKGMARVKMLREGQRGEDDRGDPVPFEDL
UniProt Q4DA54, 1-478: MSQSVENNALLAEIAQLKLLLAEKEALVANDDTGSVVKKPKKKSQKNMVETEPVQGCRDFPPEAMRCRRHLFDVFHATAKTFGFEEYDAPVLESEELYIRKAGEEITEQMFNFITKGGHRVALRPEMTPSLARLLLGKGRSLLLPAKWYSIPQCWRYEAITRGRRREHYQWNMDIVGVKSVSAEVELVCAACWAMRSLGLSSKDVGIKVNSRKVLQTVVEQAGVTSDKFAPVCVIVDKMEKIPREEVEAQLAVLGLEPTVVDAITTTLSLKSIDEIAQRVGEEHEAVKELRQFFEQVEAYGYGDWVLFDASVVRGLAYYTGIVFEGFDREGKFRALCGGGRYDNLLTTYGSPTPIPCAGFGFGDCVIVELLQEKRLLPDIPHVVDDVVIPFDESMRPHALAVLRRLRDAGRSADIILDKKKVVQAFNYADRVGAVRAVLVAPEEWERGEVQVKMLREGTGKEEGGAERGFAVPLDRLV
UniProt P9WPC5, whole entry: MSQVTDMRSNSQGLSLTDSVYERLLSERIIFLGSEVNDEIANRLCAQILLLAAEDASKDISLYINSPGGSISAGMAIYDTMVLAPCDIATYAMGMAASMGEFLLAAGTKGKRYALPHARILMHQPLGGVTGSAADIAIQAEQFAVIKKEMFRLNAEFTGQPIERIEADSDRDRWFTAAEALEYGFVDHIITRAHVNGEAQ
UniProt P9WPC3, whole entry partner: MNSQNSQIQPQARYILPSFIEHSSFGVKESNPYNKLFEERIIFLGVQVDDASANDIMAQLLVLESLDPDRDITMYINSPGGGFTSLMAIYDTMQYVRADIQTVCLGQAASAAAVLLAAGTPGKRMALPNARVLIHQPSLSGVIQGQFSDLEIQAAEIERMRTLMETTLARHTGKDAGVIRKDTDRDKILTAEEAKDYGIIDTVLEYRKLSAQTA

PfKRS1: 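Enzyme assay of the cytosolic lysyl-tRNA synthetase in 384-well plates, read by luminescence. Target: Lysine-tRNA ligase, Plasmodium falciparum 3D7 (UniProt Q8IDJ8). Compounds at 30 µM. Higher reads as stronger inhibition, judged from the few compounds that gave an IC50. Of about 69,000 compounds tested this way, about 49 (0.071%) reached 50% or more in at least one test.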
LiHisRS: 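Histidine-tRNA ligase, Leishmania infantum (UniProt A4I591). Enzyme assay of histidyl-tRNA synthetase; the read-out is not stated. Tested at 30 µM. Higher reads as stronger inhibition (inferred: compounds with an IC50 in retests scored well above the rest). The assay is labelled LdHisRS but filed under L. infantum. About 69,000 compounds were tested under these conditions; 0.6% (about 410) showed 50% or more at least once.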
TcHisRS: 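Histidine-tRNA ligase, Trypanosoma cruzi CL Brener (UniProt Q4DA54). Enzyme assay of histidyl-tRNA synthetase; the read-out is not stated. Concentration: 30 µM. The record gives no direction; compounds that gave an IC50 in retests scored well above the rest, so higher reads as stronger inhibition. Size under these conditions: about 69,000 compounds, about 31 of them at 50% or above in at least one test.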
Leishmania in macrophages: 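Cell assay of Leishmania donovani living inside macrophages; the read-out is not stated. Compounds at 30 µM. Direction is inferred from retests: higher values go with stronger inhibition. About 69,000 compounds were tested under these conditions; 1.5% (about 1,000) showed 50% or more at least once.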
ClpP1P2: 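ClpP1P2, Mycobacterium tuberculosis (UniProt P9WPC5 and UniProt P9WPC3). Protease assay of ClpP1P2, read by the AMC dye that it sets free. Tested at 50 µM. Direction is inferred from only a few compounds that gave an IC50; most scored high, so higher reads as stronger inhibition. Most other retested compounds had strongly negative values. Of about 69,000 compounds tested this way, about 10 (0.015%) reached 50% or more in at least one test.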

Each number is a percent effect as filed. The controls that fix the scale are not given in the record; negative values are as filed. Compounds were drawn at random from those tested, without regard to their results. Two or more numbers in one place are separate tests of the same structure; such repeats can differ widely. A dash means the value is not listed here; it may have been measured.

Compound | PfKRS1 | LiHisRS | TcHisRS | Leishmania in macrophages | ClpP1P2
NC(=O)COc1ccc(CNCc2cc(F)cc(F)c2)cc1 | 4.647 | 18.52 | 4.018 | - | -11.7
Cc1ccccc1C(C(=O)N1CCN(C(=O)c2ccc[nH]2)CC1)N(C)C (centres undefined) | 6.276 | 5.479 | 6.557 | 24.06 | -0.9672
COc1ccc(CC(=O)NC2(C#N)CCOCC2)c(Cl)c1 | 4.751 | 21.43 | 3.509 | 1.973 | -6.155
CC(C)NC(=O)CCNC(=O)CCc1cc(Cl)cs1 | 4.414 | 22.32 | 8.333 | 2.632 | 5.987
O=C1CO[C@H]2CN(C3CCOCC3)C[C@H]2N1Cc1ccncc1 | 8.878 | 20.27 | 7.609 | - | -11.21
[H][C@@]12CCN(Cc3ccc(C)cc3)C[C@]1([H])[C@H](c1nc(C)no1)CCO2 | - | - | - | 21.44 | -
CCc1noc(CNc2ccc(C(=O)N3CCCC3)cc2C)n1 | -1.273 | 8.696 | 1.724 | -22.76 | -12.35
O=C(c1cccnc1SCc1ccccc1)N1CCOCC1 | 6.947 | 7.921 | 6.818 | -51.58 | -0.2044
CC1CN(C(=O)Nc2ccc(Cl)c(C(=O)NC3CC3)c2)CC(C)(C)O1 (centres undefined) | 1.515 | 6.4 | 0 | 2.524 | -20.68
O=C1CC2(CCN(C(=O)C3CCCCC3)C2)Nc2ccccc2N1 (centres undefined) | 2.824 | 16.55 | 2.959 | 29.44 | 13.06
[H][C@]12CN(c3cnn(C)c3)C(=O)[C@@]1([H])CN(S(=O)(=O)C1CC1)C2 | - | - | - | 11.99 | -
O=C(O)C(F)(F)F.[H][C@]12CCC[C@@H](CNc3cnccn3)[C@@]1([H])CN(Cc1cccnc1)C2 | - | - | - | -2.215 | -
CC1CCN(c2ccc3c(-c4ncc(C(=O)O)s4)noc3c2)CC1 | 4.71 | 27.35 | -9.816 | 29.25 | 0.9368
CCOCCc1nc(CCc2ccccc2)n[nH]1 | 1.694 | 24.49 | 6.154 | 18.81 | 3.219
COCCN1CCC(CNC(=O)C2(c3cc(C)cc(C)c3)CCC2)C1 (centres undefined) | -1.173 | 7.576 | 0.7576 | 16.59 | -3.053
Cc1cccc(N2CC(c3nnc(N)s3)CC2=O)c1 (centres undefined) | 4.87 | 20.99 | 3.125 | 8.324 | -22.4
Cl.NC(CC1CCCCC1)c1ccccc1 (centres undefined) | - | - | - | 68.07 | -
O=C(O)C(F)(F)F.O=S(=O)(c1cccs1)N1CCCn2cnc(CO)c2C1 | - | - | - | 7.722 | -
Cc1ccc(CN2CCCC3(CCN(Cc4ccoc4)CC3)C2)cc1.O=C(O)C(F)(F)F.O=C(O)C(F)(F)F | - | - | - | 70.84 | -
CN(C)C(=O)N1CCn2nc(CNC(=O)CCC(F)(F)F)cc2C1 | 0.2697 | 20.19 | 4.065 | 29.41 | -0.4773
Cc1nc(CN2CCN(CC(=O)Nc3c(C)cccc3C)CC2)no1 | 2.837 | 16 | 4.151 | 30.3 | 0.593
COc1ccc(CC(=O)NCCn2nc3ccccn3c2=O)cc1 | -1.595 | 18.67 | -0.5435 | 2.583 | -10.31
CN(Cc1ccsc1)C(=O)c1cccc(NS(C)(=O)=O)c1 | -0.05796 | 19.18 | 0 | 24.62 | 15.97
CSc1nccc(-c2cccc(-c3ccn(CC4COCCO4)n3)c2)n1 (centres undefined) | -1.846 | 6.667 | 2.597 | 19.22 | -3.296
CCOC[C@@H]1CCC[C@]12CN(S(=O)(=O)c1cn(C)cn1)CCO2 | 3.212 | 5.769 | 1.676 | 31.76 | 1.056
Cc1cnn(C2CN(CC(O)Cn3cccn3)C2)c1 (centres undefined) | 3.229 | 16.67 | 8.235 | 1.35 | -6.893
CNC(=O)c1ccc(C2CCCN(C(=O)c3c(C)noc3C)C2)nc1 (centres undefined) | 0.9908 | -1.053 | 5.224 | 12.55 and 3.108 | 1.033
CCc1c(C(=O)N2CCC3(CC(=O)NC3=O)C2)csc1C (centres undefined) | 4.84 | 11.32 | 3.333 | 3.29 | -7.597
Cc1nn(C)c2nc(N3CCCCC3c3nccs3)sc12 (centres undefined) | -3.584 | 12.4 | 5.952 | 21.88 | 3.881
CCc1ncc(CN2C[C@@H]3C[C@@H](O)CN3C[C@@H]2Cc2ccccc2)cn1 | -2.222 | 8.054 | 3.714 | - | -20.05
Cc1nn(C)cc1C1SCC(=O)Nc2c1c(O)nn2C(C)C (centres undefined) | 2.713 | 18.42 | 1.22 | 16.72 and 27.99 | -8.27
COCc1noc(-c2nn(-c3ccc(F)c(F)c3)c3c2CCC3)n1 | 2.123 | 11.29 | 0.6494 | 31.33 | -0.448
CN1CCC(O)(CCNC(=O)[C@@]23CNC[C@@H]2CN(C2CCCC2)C3)CC1 | 0.2597 | 10.26 | -0.5618 | - | -8.024
O=C(CCS(=O)(=O)c1ccccc1)NC1CCOC2(CCOCC2)C1 (centres undefined) | 2.887 | 6.993 | 6.468 | -6.021 | -6.004
Cc1ccc(CN2CCc3ncnc(-c4ccc(F)cc4)c3CC2)o1 | 6.668 | 16.98 | 3.784 | - | -9.069
COCc1cccc(NC(=O)N(C)Cc2ncc(C)c(OC)c2C)c1 | 2.373 | 19.35 | 8.642 | 3.293 | -8.835
Cc1c(F)cccc1S(=O)(=O)NCCN | -0.02454 | 17.11 | -1.478 | - | -8.687
[H][C@@]12CCCN1C[C@@H](CCSC)N(Cc1cnn(C=C)c1C)C2 | - | - | - | 11.42 | -
CCO[C@@H]1CO[C@@]2(CCCN(C(=O)c3ccc(OC)c(F)c3)C2)C1 | 5.516 | 16.5 | 2.174 | 6.334 | -7.894
Cc1ccc(Cc2cnc(C3CCNCC3)cn2)cc1.Cl | - | - | - | -15.41 | -
Cc1cc2c(=O)n(CCSc3ncn[nH]3)cnc2s1 | 3.959 | -1.399 | 5.473 | 1.704 | -11.8
Cc1nc(C(C)C)ncc1C(=O)N1CCC(c2ccccc2C(=O)O)C1 (centres undefined) | 6.062 | 17.5 | -5.797 | 34.28 | -22.51

The first 4 entries again:

| Compound | PfKRS1 | LiHisRS | TcHisRS | Leishmania in macrophages | ClpP1P2 |
|---|---|---|---|---|---|
| `NC(=O)COc1ccc(CNCc2cc(F)cc(F)c2)cc1` | 4.647 | 18.52 | 4.018 | - | -11.7 |
| `Cc1ccccc1C(C(=O)N1CCN(C(=O)c2ccc[nH]2)CC1)N(C)C` (centres undefined) | 6.276 | 5.479 | 6.557 | 24.06 | -0.9672 |
| `COc1ccc(CC(=O)NC2(C#N)CCOCC2)c(Cl)c1` | 4.751 | 21.43 | 3.509 | 1.973 | -6.155 |
| `CC(C)NC(=O)CCNC(=O)CCc1cc(Cl)cs1` | 4.414 | 22.32 | 8.333 | 2.632 | 5.987 |

Source: ChEMBL document CHEMBL3988442, “University of Dundee, Small-Polar-MMV Screening Library” (2021).